In PubChem BioAssay AID330 (DTP/NCI, 2004):
The list shows only some results of the screen, not a fair sample: it is rich in T/C values a quarter to a half above the control, in often repeated tests (any T/C) and in doses without a T/C. Further doses and runs are listed elsewhere. T/C: endpoint of the treated group in % of that of the vehicle group. Some entries give survivors of the animals treated and no T/C: the source holds a T/C of zero for them, seemingly a mark for toxic or unscored doses. Some survivor counts are full or nearly so, which does not show that the dose was tolerated: survival well below the control is almost never listed, so the zero probably covers shortened survival too. Counts of survivors are from the toxicity check (mostly the fifth day) where no day follows; animals may have died later. Schedules are NCI's codes, taken here to give the interval after Q, in days (D) or hours (H), and the number of doses after X. Signs of the kind (2×) stand for listed records that agree. Some entries hold several experiments; their values stand side by side, smallest first. For survival time, this PubChem deposit counts one and a half times the control or more as active, and values a quarter to a half above the control carry no call in these data; other NCI protocols may use other cut-offs. Some T/C values are followed by the survivors on the day toxicity was checked, most often the fifth; without a count, all were alive then.

System: P388 leukemia ip, CD2F1 mice, survival T/C
Test: NCI In Vivo Anticancer Drug Screen. Data for tumor model P388 Leukemia (intraperitoneal) in CD2F1 (CDF1) mice
Details: T/C endpoint: median survival time, higher T/C = longer survival
[1] = dose: 25.0 mg/kg/injection, schedule: Q01DX009 (ip), vehicle: other
[2] = dose: 200.0 mg/kg/injection, schedule: Q01DX005 (ip), vehicle: Klucel (hydroxypropylcellulose) (HPC)

CO[C@H]1C[C@](C)(O)Cc2cc3c(c(O)c21)C(=O)c1c(O)cc2c(c1C3=O)O[C@@H]1O[C@@]2(C)[C@H](O)[C@@H](N(C)C)[C@@H]1O
T/C (dose: 0.78 mg/kg/injection, schedule: Q01DX009 (ip), vehicle: other): 147 % of control
T/C (dose: 1.25 mg/kg/injection, schedule: Q01DX005 (ip), vehicle: clinical formulation): 144 and 148 % of control
T/C (dose: 1.56 mg/kg/injection, schedule: Q01DX009 (ip), vehicle: other): 138 % of control
T/C (dose: 1.6 mg/kg/injection, schedule: Q01DX009 (ip), vehicle: other): 147, 163, 164, 165 % of control
T/C (dose: 1.6 mg/kg/injection, schedule: Q04DX003 (ip), vehicle: other): 148 % of control
T/C (dose: 3.0 mg/kg/injection, schedule: Q01DX005 (iv), vehicle: clinical formulation): 136 and 138 % of control
T/C (dose: 3.12 mg/kg/injection, schedule: Q01DX009 (ip), vehicle: other): 147, 157, 167, 169 % of control
T/C (dose: 3.13 mg/kg/injection, schedule: Q01DX009 (ip), vehicle: other): 167, 174, 175, 177, 188, 201 % of control
T/C (dose: 3.13 mg/kg/injection, schedule: Q04DX003 (ip), vehicle: other): 143 % of control
T/C (dose: 4.5 mg/kg/injection, schedule: Q01DX005 (iv), vehicle: other, evaluated on day 35): 149 % of control
T/C (dose: 4.5 mg/kg/injection, schedule: Q01DX005 (iv), vehicle: other, evaluated on day 60): 137 % of control
T/C (dose: 4.5 mg/kg/injection, schedule: Q01DX009 (ip), vehicle: other, evaluated on day 45): 180 % of control
T/C (dose: 4.5 mg/kg/injection, schedule: Q01DX009 (ip), vehicle: other, evaluated on day 60): 162, 179, 181, 183 % of control
T/C (dose: 5.0 mg/kg/injection, schedule: Q01DX009 (ip), vehicle: other): 148, 170, 174, 185, 186, 187, 189, 190, 192, 193, 194, 198, 201, 203 % of control
T/C (dose: 6.25 mg/kg/injection, schedule: Q01DX009 (ip), vehicle: other): 164, 190 (2×), 194, 197, 200, 209, 210, 211 (2×), 213, 243 % of control
T/C (dose: 6.25 mg/kg/injection, schedule: Q01DX009 (oral), vehicle: saline): 135 % of control
T/C (dose: 6.7 mg/kg/injection, schedule: Q01DX009 (ip), vehicle: other, evaluated on day 45): 192, 209, 210, 216, 220 % of control (2×)
T/C (dose: 6.7 mg/kg/injection, schedule: Q01DX009 (ip), vehicle: other, evaluated on day 60): 196, 200, 204, 206, 216, 223 % of control
T/C (dose: 10.0 mg/kg/injection, schedule: Q01DX009 (ip), vehicle: other, evaluated on day 30): 101, 200, 207, 218, 221, 222, 224, 232, 238, 254, 259, 263, 274, 281 % of control
T/C (dose: 10.0 mg/kg/injection, schedule: Q01DX009 (ip), vehicle: other, evaluated on day 45): 230, 240, 253, 255, 261, 269 % of control
T/C (dose: 10.0 mg/kg/injection, schedule: Q01DX009 (ip), vehicle: other, evaluated on day 60): 225, 227, 230, 242, 247, 262 % of control
T/C (dose: 12.5 mg/kg/injection, schedule: Q01DX009 (ip), vehicle: other): 95, 154, 174, 174 [5 of 6 alive], 222, 227, 235, 242, 250, 257, 285, 297 % of control
T/C (dose: 12.5 mg/kg/injection, schedule: Q01DX009 (oral), vehicle: other): 137 and 148 % of control
T/C (dose: 15.0 mg/kg/injection, schedule: Q01DX005 (iv), vehicle: other): 145 % of control
T/C (dose: 15.0 mg/kg/injection, schedule: Q01DX009 (ip), vehicle: other, evaluated on day 45): 291, 313, 329, 338, 383, 386 % of control
T/C (dose: 15.0 mg/kg/injection, schedule: Q01DX009 (ip), vehicle: other, evaluated on day 60): 295, 297, 298, 299, 306, 339 % of control
survivor count (dose: 15.0 mg/kg/injection, schedule: Q01DX009 (ip), vehicle: other): 10 of 10
T/C (dose: 20.0 mg/kg/injection, schedule: Q01DX009 (ip), vehicle: other, evaluated on day 30): 86, 91, 97, 104 % of control [5 of 6 alive]
T/C (dose: 20.0 mg/kg/injection, schedule: Q01DX009 (ip), vehicle: other, evaluated on day 45): 174 % of control
survivor count (dose: 20.0 mg/kg/injection, schedule: Q01DX009 (ip), vehicle: other): 6 of 6 (2×)
survivor count (dose: 22.0 mg/kg/injection, schedule: Q01DX005 (iv), vehicle: other): 4 of 10
survivor count (dose: 22.0 mg/kg/injection, schedule: Q01DX009 (ip), vehicle: other): 10 of 10
survivor count (dose: 22.5 mg/kg/injection, schedule: Q01DX005 (iv), vehicle: clinical formulation): 10 of 10
survivor count (dose: 22.5 mg/kg/injection, schedule: Q01DX005 (iv), vehicle: other): 4 of 10
T/C (dose: 22.5 mg/kg/injection, schedule: Q01DX009 (ip), vehicle: other, evaluated on day 45): 112, 114, 117, 123 % of control (2×)
T/C (dose: 22.5 mg/kg/injection, schedule: Q01DX009 (ip), vehicle: other, evaluated on day 60): 98, 100, 107, 145 % of control
T/C [1]: 87, 101, 102, 127, 209 % of control
survivor count [1]: 3 of 6, 5 of 6, 6 of 6 (2×)
survivor count (dose: 33.0 mg/kg/injection, schedule: Q01DX009 (ip), vehicle: other): 9 of 10
T/C (dose: 33.0 mg/kg/injection, schedule: Q01DX009 (oral), vehicle: other): 136 % of control
survivor count (dose: 40.0 mg/kg/injection, schedule: Q01DX005 (ip), vehicle: clinical formulation): 10 of 10
survivor count (dose: 40.0 mg/kg/injection, schedule: Q01DX005 (ip), vehicle: distilled water + Tween-80): 6 of 6
survivor count (dose: 40.0 mg/kg/injection, schedule: Q01DX005 (ip), vehicle: other): 9 of 10
survivor count (dose: 50.0 mg/kg/injection, schedule: Q01DX009 (ip), vehicle: other): 0 of 10 and 6 of 6
survivor count (dose: 50.0 mg/kg/injection, schedule: Q04DX003 (ip), vehicle: other): 8 of 8
survivor count (dose: 75.0 mg/kg/injection, schedule: Q01DX009 (ip), vehicle: other): 0 of 10
survivor count (dose: 75.0 mg/kg/injection, schedule: Q01DX009 (oral), vehicle: other): 10 of 10
survivor count (dose: 100.0 mg/kg/injection, schedule: Q01DX001 (ip), vehicle: other): 5 of 6
T/C (dose: 100.0 mg/kg/injection, schedule: Q01DX001 (sc), vehicle: other): 134 % of control
survivor count (dose: 200.0 mg/kg/injection, schedule: Q01DX001 (ip), vehicle: other): 1 of 6

O=C1OC(C(Cl)(Cl)Cl)Nc2ccccc21 (stereo not drawn)
survivor count [2]: 4 of 5

COc1cccc2c1C(=O)c1c(O)c3c(c(O)c1C2=O)C[C@@](O)(C(C)=O)C[C@@H]3OC1CC(N)C(OC2CC(O)C(O)C(C)O2)C(C)O1 (stereo partly drawn)
T/C (dose: 18.0 mg/kg/injection, schedule: Q04DX003 (ip), vehicle: distilled water + Tween-80): 126 % of control
T/C (dose: 50.0 mg/kg/injection, schedule: Q04DX003 (ip), vehicle: distilled water + Tween-80): 128 % of control

CC(C)CCC1=CC(=O)c2c(O)ccc(O)c2C1=O
survivor count (dose: 87.5 mg/kg/injection, schedule: Q04DX002 (ip), vehicle: DMSO): 3 of 6
survivor count (dose: 175.0 mg/kg/injection, schedule: Q04DX002 (ip), vehicle: DMSO): 0 of 6
survivor count (dose: 350.0 mg/kg/injection, schedule: Q04DX002 (ip), vehicle: DMSO): 0 of 6

C/C(=C\C(=O)c1cccc(F)c1)N1CCN(c2cccc(C(F)(F)F)c2)CC1
survivor count [2]: 4 of 6

COc1ccc(N=Nc2c(-c3cccs3)nn(C(=S)SC)c2C(F)(F)F)cc1
survivor count (dose: 60.0 mg/kg/injection, schedule: Q01DX005 (ip), vehicle: saline with Tween-80): 0 of 6
survivor count (dose: 120.0 mg/kg/injection, schedule: Q01DX005 (ip), vehicle: saline with Tween-80): 0 of 6
survivor count (dose: 240.0 mg/kg/injection, schedule: Q01DX005 (ip), vehicle: saline with Tween-80): 0 of 6

C1[Se]CC12C[Se]C2
survivor count (dose: 40.0 mg/kg/injection, schedule: Q01DX009 (ip), vehicle: saline with Tween-80): 5 of 6
survivor count (dose: 80.0 mg/kg/injection, schedule: Q01DX009 (ip), vehicle: saline with Tween-80): 0 of 6

O=C1C2=C(Nc3cc([N+](=O)[O-])ccc3N2)OC1c1ccc(Cl)cc1Cl (stereo not drawn)
survivor count (dose: 120.0 mg/kg/injection, schedule: Q01DX005 (ip), vehicle: Klucel (hydroxypropylcellulose) (HPC)): 6 of 6
